Laboratory results taken from publication doi:10.1101/2023.01.12.523872.
Where two headings read alike, the source gives them in different places. No constants are given. Whether binding was seen depends on the method and setting. Binding seen in cells or lysates may run through a third protein. These calls come from enrichment with a bait or labelling near it, and not all partners need be listed. Tags and fused reporters may be left off the sequences shown.

T1: Scs2-GFP-TM (S. pombe) (UniProt O60119)
T1 sequence: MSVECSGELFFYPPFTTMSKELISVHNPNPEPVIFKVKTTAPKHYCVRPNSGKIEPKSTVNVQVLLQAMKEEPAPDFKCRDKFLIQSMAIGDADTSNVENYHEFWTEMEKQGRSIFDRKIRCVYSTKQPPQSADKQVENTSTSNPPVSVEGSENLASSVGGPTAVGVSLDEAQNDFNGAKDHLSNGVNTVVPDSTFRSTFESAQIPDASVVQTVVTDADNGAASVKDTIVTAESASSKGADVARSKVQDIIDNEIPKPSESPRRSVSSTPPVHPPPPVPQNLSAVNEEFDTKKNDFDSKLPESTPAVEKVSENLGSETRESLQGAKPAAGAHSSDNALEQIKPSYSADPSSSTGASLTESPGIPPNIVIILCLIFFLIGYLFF


Columns and labels:
Scs2-GFP-TM (S. pombe) [1] = target: T1, Scs2-GFP-TM (S. pombe); assay: affinity purification with mass spectrometry
Scs2-GFP-TM (S. pombe) [2] = target: T1, Scs2-GFP-TM (S. pombe); assay: affinity purification with mass spectrometry; remark: listed apart in the source

Row | Molecule | binding (Scs2-GFP-TM (S. pombe) [1]) | binding (Scs2-GFP-TM (S. pombe) [2])
1 | Csr102 (endogenous) (S. pombe (endogenous in S. pombe cells)) | binds | 
2 | Pdr16 (endogenous) (S. pombe (endogenous in S. pombe cells)) | binds | 
3 | Myo1 (endogenous) (protein, UniProt Q9Y7Z8 1-1217) MAILKRTNRAKAATAAAPNSTGKSNGIKKAVYTSTRKKTVGVDDLTLLSKITDEEINKNLELRFRNGEIYTYIGHVLISVNPFRDLGIYTMDILKSYQGKNRLETSPHVYAIAENAYYQMKSYHENQCIIISGESGAGKTEAAKRIMQYITHVSKSVGTEIERVSEIILATNPLLESFGCAKTLRNNNSSRHGKYLEMIFNSGGVPVGAKITNYLLEKNRIVNQVRNERNFHIFYQFTKSAPQKYRDTYGIQGPENYVYTSACQCLSVDGISDEKDFQGTMNAMKVIGITEPEQDEIFRMLSIILWLGNIQFQEGQDGGSVISDKSITEFLGYLIGVPVAAIERALTIRIMQTQHGARRGSVYEVPLNPTQALAVRDALSMAIYNCLFDWIVERVNKALVTSDNSVSNSIGILDIYGFEIFENNSFEQLCINYVNEKLQQIFIELTLKTEQEEYVREQIAWTPIKYFNNKVVCDLIESKRPPGLFAAMNDAIATAHADSAAADSAFAQRLNFLSSNPHFEQRQNQFIVKHYAGDVTYSITGMTDKNKDQLATDILNLIHSSNNEFMKSIFPVAEESNSRRRPPTAGDRIKTSANDLVETLMKCQPSYIRTIKPNQTKSPNDYDQQMVLHQIKYLGLQENIRIRRAGFAYRQAFDTFAQRFAVLSGKTSYAGEYTWQGDDKSACEQILKDTNIPSSEYQMGTSKVFIKNPETLFALEDMRDKFWDTMATRIQRAWRSYVRRRSEAAACIQKLWNRNKVNMELERVRNEGTKLLQGKKQRRRYSILGSRKFYGDYLSASKPNGTLWNTCGLSQNDHVIFSMRCEVLVHKLGRTSKPSPRQLVLTKKNLYLVITKIVDQKLTQQVEKKFAVSSIDSVGLTNLQDDWVAIRNKSSQNGDMFLRCFFKTEFITTLKRINRNIQVIVGPTIQYCRKPGKVQTVKTAKDETTKDYDYYKSGTIHVGTGLPPTSKSKPFPRLATGGSTAAARGPRPVVQNKPAATKPVSMPAAKSKPAPMANPVSTAQQTQNRPPAPAMQARPNTTQAAAPVTSTTTTIKQATTVSASKPAPSTVTSAASSPSNISKPSAPVANNVSKPSAVPPPPPPPPAEVEKKDLYLALYDFAGRSPNEMTIKKDEIIEIVQKEPSGWWLALKNGAEGWVPATYVTEYKGSTPQTTASSTNVAAQANNNASPAEVNNLAGSLADALRMRASAVRGSDEEEDW |  | binds
4 | Pil1 (endogenous) (protein, UniProt O74960 1-351) MMNRAYSLRNSRAPTASQLLNPPPPSSSTRSGRLFAPLSHTMRINHAATFTPDLAKRLAVLVKMEKNVMRSMEVTIRGRRDCARQLSYWGEDCDDDISDVTDKLGVLFYEMAELENYLIDRYDQYRMTLKSIRNIESSVQPSREKKQKLLDQIYALKHKDPESPRLVTMEQELVREEAACLVAEAQLSNTTREKFKQAMTFNLDALHEHAEKLNLIATYGRHLLNLIDDTPVTPGEARPAYDGYETSRQIVMDAEHALSSWVPSQPAVNFVKPQIEDDAQSDARSWNEYEAQGEPVPVEQVTHLQDDVQSDTSEIIENEPGMHPHVHAERMSRIASESSDAVPQQTAVQVA |  | binds
